According to the supplement of paper PMC12578635:
± gives the standard deviation of the averaged measurements. This is one part of the list. Repeats are few or missing, and single values can be far off.

Each compound was assayed on RAW 264.7 macrophages infected with S. aureus JE2-lux (assay: host macrophage viability (CellTiter-Fluor) relative to DMSO vehicle; higher = more viable host cells). Conditions: 10 µM; treatment time 4 h; gentamicin 50 µg/ml.
With `COc1ccccc1NC(=O)CN1C(=O)C2(SCC(=O)N2c2cccc(F)c2)c2cc(C)ccc21` (configuration not stated) the host macrophage viability was 123%.
Compound `COCCNC(=O)CN1CCN(c2ncc(NC(C)=O)cc2C(=O)O)CC1` has a host macrophage viability of 115%.
Work on `Cn1c(=O)[nH]c(=O)c2c1nc1n2CC(c2ccc(Br)cc2)O1` (configuration not stated) yielded a host macrophage viability of 113%.
In the case of `COc1ccc(C(=O)Nc2sc3c(c2C(N)=O)CCCCC3)c(OC)c1`, the host macrophage viability is reported as 117 ± 2.3%.
For `Cc1ccc(-c2ncc3c(=O)n(CC(=O)Nc4nccs4)c(=O)n(C)c3n2)cc1`, the host macrophage viability was 130%.
With `Cn1nc(C(C)(C)C)cc1C(=O)N1CCc2c(nc(N3CCOCC3)[nH]c2=O)C1` the host macrophage viability was 136%.
In the case of `COc1cccc(-c2ocnc2C(=O)Nc2ccc(CN3CCCCC3)cc2)c1`, the host macrophage viability is reported as 102%.
With `O=C(COc1ccc(Cl)cc1)Nc1nc2c(s1)CSc1ccccc1-2` the host macrophage viability was 120%.
Compound `CCc1c(C)nc2ncnn2c1Sc1ccc(NC(=O)C2CC(=O)N(c3ccc(C)cc3)C2)cc1` (configuration not stated) has a host macrophage viability of 116%.
With `O=C(NCc1n[nH]c(=O)c2ccccc12)Nc1c(F)cccc1F` the host macrophage viability was 135%.
In the case of `COC(=O)c1cccc(-n2nnnc2SCC(=O)Nc2ccc(F)cc2)c1`, the host macrophage viability is reported as 90.7%.
With `Cc1ccc(-c2c(C(F)(F)F)nn3c(NCc4cccnc4)cc(C)nc23)cc1` the host macrophage viability was 108%.
For `Cc1ccc(NC(=O)CN(C2=NC3CS(=O)(=O)CC3S2)c2ccc(C(C)C)cc2)cc1` (configuration not stated), the host macrophage viability was 131%.
Work on `COc1cccc2sc(NC(=O)c3cccc(C(F)(F)F)c3)nc12` yielded a host macrophage viability of 111%.
`Cc1ccc2sc(NNC(=O)c3nc4ccccc4s3)nc2c1C` showed a host macrophage viability of 138 ± 22%.
With `COC(=O)C1Sc2[nH]c(=O)sc2C(c2cccc([N+](=O)[O-])c2)C1C(=O)OC` (configuration not stated) the host macrophage viability was 117%.
`CCOc1ccccc1C1C(C#N)=C(N)Oc2[nH]nc(-c3ccccc3)c21` (configuration not stated) gave a host macrophage viability of 101 ± 11%.
Work on `CN1CCN(Nc2ncnc(N)c2[N+](=O)[O-])CC1` yielded a host macrophage viability of 119%.
`CC1CCc2c(sc3ncnc(SCC(=O)Nc4ccc(C(=O)O)cc4)c23)C1` (configuration not stated) showed a host macrophage viability of 104%.
For `CCOC(=O)c1ccccc1NC(=O)CSc1nc(=O)[nH]c(C)c1C(=O)OCC`, the host macrophage viability was 118%.
Work on `CNC(=S)N(CCc1c(C)[nH]c2ccc(C)cc12)Cc1cccnc1` yielded a host macrophage viability of 117%.
`O=C(CN1CCC2(CC1)NC(=O)N(Cc1ccc(Cl)cc1)C2=O)Nc1cccc(F)c1` showed a host macrophage viability of 115%.
`Cc1cc(NC(=O)Cn2c(C)cc(C)c(C#N)c2=O)[nH]n1` showed a host macrophage viability of 109%.
Compound `COc1ccc([N+](=O)[O-])cc1NC(=O)c1c[nH]c(=O)n(-c2ccc(OC)c(OC)c2)c1=O` has a host macrophage viability of 98.8 ± 2.5%.
Compound `Cc1ccc(Nc2nc(NCCOCCO)nc(N)c2[N+](=O)[O-])cc1C` has a host macrophage viability of 88.5%.
Compound `Cc1ccc(-n2nc(C)c3c(C)cc(=O)[nH]c32)cc1C` has a host macrophage viability of 91.6%.
With `O=C1C2C3CC(C2C(=O)N1c1ccc(Cl)cc1)C1C(c2cccnc2)c2sc(=O)[nH]c2SC31` (configuration not stated) the host macrophage viability was 112%.
For `CSc1ccccc1NS(=O)(=O)c1cc2c3c(c1)CCC(=O)N3CCC2`, the host macrophage viability was 105%.
With `COC(=O)c1ccc(NC(=O)CSc2ncc(CO)n2Cc2ccc(F)cc2)cc1` the host macrophage viability was 113%.
Work on `Cc1cc(C)c2nc(NC(=O)CSc3ccccc3)sc2c1` yielded a host macrophage viability of 115%.
`O=C1C(NS(=O)(=O)c2ccccc2)=C/C(=N\S(=O)(=O)c2ccc(F)cc2)c2ccccc21` was tested, and the host macrophage viability was 90.5%.
Work on `CCOc1ccccc1Nc1ncnc2c1c(C)c(C)n2-c1cccc(F)c1` yielded a host macrophage viability of 117%.
`CNc1n[nH]c(N)c1-c1nc(-c2ccccc2C)no1` was tested, and the host macrophage viability was 113%.
For `CC1=NN(Cc2ccccc2C)c2nc3c(c(=O)n(C)c(=O)n3C)n2C1C` (configuration not stated), the host macrophage viability was 108%.
`COc1cccc(C2C(C(=O)c3ccncc3)=C(O)C(=O)N2CCCN2CCOCC2)c1` (configuration not stated) was tested, and the host macrophage viability was 102%.
For `O=C(Nn1c(C2CCC2)nc2ccccc2c1=O)c1ccc(-c2ccccc2)cc1`, the host macrophage viability was 116%.
Compound `CC(=O)Nc1cc2nc(C)n(Cc3ccccc3[N+](=O)[O-])c2nc1C` has a host macrophage viability of 110%.
Compound `Cc1ccc(C)c(NS(=O)(=O)c2ccc3[nH]c(=O)cc(C)c3c2)c1` has a host macrophage viability of 131%.
For `Cc1ccnc(N2CCCC(C(=O)NCc3ccc(Cl)cc3)C2)n1` (configuration not stated), the host macrophage viability was 129%.
Work on `O=C(c1ccc(Cn2c(=O)c(=O)[nH]c3cccnc32)cc1)N1CCN(c2ncccn2)CC1` yielded a host macrophage viability of 119%.
Work on `C=CCNC(=O)CCCCCn1c(=O)[nH]c2ccsc2c1=O` yielded a host macrophage viability of 114%.
For `[N-]=[N+]=NC1CC(CO)OC1n1ccc(=O)[nH]c1=O` (configuration not stated), the host macrophage viability was 109%.
In the case of `O=C(Nc1cc(C(F)(F)F)ccc1Cl)c1cnc2n(c1=O)CCS2`, the host macrophage viability is reported as 106%.
Work on `CC1CCc2c(sc(NC(=O)CN(C(=O)c3ccco3)C3CCCCC3)c2C(N)=O)C1` (configuration not stated) yielded a host macrophage viability of 103%.
In the case of `CCc1ccc(NC(=O)c2cnn3c(N)c(C#N)c(-c4ccc(Br)cc4)nc23)cc1`, the host macrophage viability is reported as 109%.
`CC(=O)c1ccc(Nc2nc(N3CCOCC3)nc(N3CCOCC3)n2)cc1` gave a host macrophage viability of 107%.
For `C/C(=N\N)c1c(-c2ccccc2)c2cc(C)ccc2[nH]c1=O`, the host macrophage viability was 114%.
For `O=C(N/N=C/c1csc([N+](=O)[O-])c1)c1cc2ccccc2cc1O`, the host macrophage viability was 103%.
With `CCOCCCNC(=O)C(=O)c1cn(CC(=O)N2CCCCCC2)c2ccccc12` the host macrophage viability was 106%.
`COc1ccc(NC(=O)CSc2nccn(-c3ccc(C)c(F)c3)c2=O)c(OC)c1` showed a host macrophage viability of 130%.
`COc1cc2nc(NC(=O)c3ccc(C(C)=O)cc3)sc2cc1OC` was tested, and the host macrophage viability was 116%.
In the case of `O=C(NCCS(=O)c1c(-c2ccc(F)cc2)[nH]c2ccccc12)C(=O)c1c[nH]c2ccccc12` (configuration not stated), the host macrophage viability is reported as 117 ± 7.4%.
`O=C(CSc1nnc2sc3ccccc3n12)NCc1ccco1` was tested, and the host macrophage viability was 131%.
`COCCCNc1nc2c(c(=O)[nH]c(=O)n2C)n1CC(=O)c1ccccc1` was tested, and the host macrophage viability was 126%.
Compound `CCCCN(C)C(=O)CSc1nccnc1N1CCN(c2cccc(C)c2C)CC1` has a host macrophage viability of 77.6%.
`CCn1cc(NC(=O)Nc2nccs2)c2ccccc21` was tested, and the host macrophage viability was 135%.
In the case of `COc1cccc(OC(C)C(=O)Nc2nc3c(s2)CCc2c-3cnn2C)c1` (configuration not stated), the host macrophage viability is reported as 101%.
Work on `COc1ccc(C2c3cccn3CCN2C(=O)Nc2ccc(C)c(C)c2)cc1` (configuration not stated) yielded a host macrophage viability of 124%.
`O=S(=O)(c1ccc(N2CCC(CNc3ncccn3)CC2)cc1)N1CCCC1` showed a host macrophage viability of 124%.
Work on `COc1ccccc1NC(=O)CSc1ncnc2c1sc1nc3cc(C)ccc3cc12` yielded a host macrophage viability of 111%.
Work on `Cn1c(=O)c2c(SCc3ccc(Cl)cc3Cl)ccnc2n(C)c1=O` yielded a host macrophage viability of 125%.
With `O=C(NCCC1CCCCN1S(=O)(=O)c1ccccc1)C(=O)NCc1cccnc1` (configuration not stated) the host macrophage viability was 116%.
Work on `COc1cccc(/C=N/NC(=O)c2cc3cc([N+](=O)[O-])ccc3s2)c1O` yielded a host macrophage viability of 131%.
With `Cc1cccc(NC(=O)CSc2nnc3sc4ccccc4n23)c1` the host macrophage viability was 116 ± 16%.
Compound `CCc1cccc(Nc2cc(-n3nc(C)cc3C)ncn2)c1` has a host macrophage viability of 101%.
For `CCOCCCNc1nc(-c2nnc(-c3ccccc3)o2)nc2ccccc12`, the host macrophage viability was 105%.
`O=C1Nc2ccccc2/C1=N/NC(=O)C(c1ccccc1)c1ccccc1` was tested, and the host macrophage viability was 105%.
`Cc1sc2nc(SCC(=O)c3ccc4c(c3)NC(=O)CO4)nc(N)c2c1C` gave a host macrophage viability of 111%.
In the case of `Cc1c(C)n(CCCN2CCOCC2)c2ncn3nc(C(C)N4C(=O)c5ccccc5C4=O)nc3c12` (configuration not stated), the host macrophage viability is reported as 94.8%.
For `CC1=C(C(=O)OCc2ccccc2)C(c2ccc(O)cc2)n2ncnc2N1` (configuration not stated), the host macrophage viability was 123%.
`Cc1cc(NC(=O)CSc2nnc3ccccn23)no1` gave a host macrophage viability of 105%.
`Cc1ccc(-c2nsc(NC(=O)COc3ccccc3)n2)s1` gave a host macrophage viability of 119%.
For `COc1ccccc1N1CCN(c2cc(=O)n(-c3ccc(Br)cc3)c(=O)[nH]2)CC1`, the host macrophage viability was 119 ± 5%.
Work on `CCN1CCN(CCNC(=O)c2cc3n(n2)CCCN(Cc2ccccc2)C3=O)CC1` yielded a host macrophage viability of 117%.
`COC(=O)c1ccsc1NC(=O)COc1ccc(Cl)cc1Cl` gave a host macrophage viability of 119%.
With `CCOC(=O)c1c(-c2ccc(F)cc2)csc1NC(=O)CN1CCOCC1` the host macrophage viability was 101%.
Compound `CCN(CC)S(=O)(=O)c1ccc(C(=O)Nc2ncnc3sccc23)cc1` has a host macrophage viability of 116%.
In the case of `Cc1cccc(NC(=O)C(C)n2c(C)nc3onc(C)c3c2=O)c1` (configuration not stated), the host macrophage viability is reported as 113%.
Compound `Cc1ccccc1C1CC(=O)c2c(C)nc(N)nc2C1` (configuration not stated) has a host macrophage viability of 113%.
With `O=C1CC(NS(=O)(=O)c2cccs2)CN1c1ccc(Cl)cc1` (configuration not stated) the host macrophage viability was 110%.
For `CCS(=O)(=O)c1ccc(C(=O)Nc2nc3c(Cl)c(Cl)ccc3s2)cc1`, the host macrophage viability was 111%.
`CCCNC(=O)Cn1nc(-c2ccc(F)cc2)c2cnc3cc(OC)c(OC)cc3c21` was tested, and the host macrophage viability was 124%.
`CCc1ccccc1NC(=O)Cn1c(C)cc(=O)n2nc(-c3cccc(C)c3)nc12` gave a host macrophage viability of 102%.
`Cc1cc(=O)n2c3ccccc3n(CC(O)CNc3ccc(C(C)C)cc3)c2c1C#N` (configuration not stated) showed a host macrophage viability of 135%.
`CCn1cc(C(=O)Nc2ccc(OC(F)(F)F)cc2)c2nn(-c3ccccc3)c(=O)c-2c1` showed a host macrophage viability of 110%.
`Cc1nc2ccccc2c(=O)n1-c1cccc(NC(=O)c2cc([N+](=O)[O-])cc([N+](=O)[O-])c2)c1` was tested, and the host macrophage viability was 104%.
`CCC(Oc1ccc(F)cc1)C(=O)Nc1noc(-c2ccccc2C)n1` (configuration not stated) showed a host macrophage viability of 103%.
In the case of `NC1=NN(c2ccccc2)C(=O)/C1=N\Nc1ccc2c(c1)OCO2`, the host macrophage viability is reported as 105%.
For `COC(=O)c1ccc(C(=O)NC(=S)Nc2sc3c(c2C#N)CCCCC3)cc1`, the host macrophage viability was 115 ± 5.6%.
In the case of `Nc1cc(Cl)c([N+](=O)[O-])cc1OCc1ccccc1`, the host macrophage viability is reported as 105%.
`O=C(Oc1c(CN2CCOCC2)cc(Cl)c2cccnc12)c1cccc([N+](=O)[O-])c1` was tested, and the host macrophage viability was 139%.
Work on `Cc1ccc(CSc2oc(-c3ccco3)nc2S(=O)(=O)c2ccccc2)cc1` yielded a host macrophage viability of 111%.
Work on `COc1ccc(-c2nc3sc(C)nn3c2NC2CCCCC2)cc1` yielded a host macrophage viability of 126%.
Compound `COc1cccc(NCc2nc3[nH]c(C)c(Cc4ccccc4)c(=O)n3n2)c1` has a host macrophage viability of 94.6%.
For `COC(=O)NC(=O)c1c(NC(=O)c2cc3ccccc3oc2=O)sc(C)c1C`, the host macrophage viability was 118%.
`Cc1ccc(/C=C2/SC(=S)N(c3ccc(C(=O)O)c(O)c3)C2=O)o1` was tested, and the host macrophage viability was 118%.
For `Oc1ccc(Br)c(C2Nc3ccc(F)cc3[C@H]3OCC[C@@H]23)c1` (some centres not stated), the host macrophage viability was 116%.
Compound `COCCOC(=O)c1c(C)oc2cc(Br)c(OCC(N)=O)cc12` has a host macrophage viability of 94.5%.
With `O=C(Nc1ccc2c(c1)CCC2)C1CCN(C(=O)Nc2ccc(Cl)cc2)CC1` the host macrophage viability was 120%.
For `O=[N+]([O-])c1cccc(NC(c2ccco2)c2ccc3cccnc3c2O)c1` (configuration not stated), the host macrophage viability was 141%.
In the case of `O=C(Nc1c(-c2ccccc2)nc2ccccn12)c1cccc([N+](=O)[O-])c1`, the host macrophage viability is reported as 112 ± 5.3%.
With `COc1cc(NC(=O)Cn2cccc2-c2nc(-c3ccccc3)cs2)cc(OC)c1` the host macrophage viability was 126%.
Work on `Cc1c(-c2cc(C(=O)O)c3cc(Br)ccc3n2)nnn1-c1ccccc1` yielded a host macrophage viability of 127%.
With `CCOC(=O)Cn1cnc2nn(-c3ccccc3)cc2c1=O` the host macrophage viability was 116%.
In the case of `CCS(=O)(=O)c1ccc(C(=O)Nc2ccc3sc(C)nc3c2)cc1`, the host macrophage viability is reported as 88.4%.
`CCN(CC)C(=O)Cn1cc(C(=O)C(=O)NCc2ccc3c(c2)OCO3)c2ccccc21` was tested, and the host macrophage viability was 118%.
Compound `O=C(NCCn1nnn(-c2ccccc2)c1=O)c1ccc(=O)[nH]n1` has a host macrophage viability of 115%.
